Measured values: paper PMC4768221, “Subcellular localization of anthracyclines in cultured rat cardiomyoblasts as possible predictors of cardiotoxicity” (Investigational New Drugs, 2015)
Values joined by “and” are separate entries in the source; they are usually repeats but may differ in a detail not shown here. Equal values may be shown once.

System: H9c2(2-1) cells
Experiment: Subcellular localization (fluorescence microscopy, densitometry)
Assay type: cell-based, rat
Details: 10 μM, 1 h, 37 °C; for % of drug localized in the nucleus: densitometry, 25 individual cells ± S.D.

| SMILES | Subcellular localization (fluorescence images) | % of drug localized in the nucleus |
| --- | --- | --- |
| COc1cccc2c1C(=O)c1c(O)c3c(c(O)c1C2=O)C[C@@](O)(C(=O)CO)C[C@@H]3O[C@H]1C[C@H](N)[C@H](O)[C@H](C)O1 [DOX, doxorubicin, reference compound] | accumulated preferentially in cell nuclei | 80.2% and 80.2 ± 3.1% |
| COc1cccc2c1C(=O)c1c(O)c3c(c(O)c1C2=O)C[C@@](O)(C(=O)CO)C[C@@H]3O[C@H]1C[C@H](N=CN2CCCCCC2)[C@H](O)[C@H](C)O1 [DOXH] | accumulated preferentially in cell nuclei | 54.2% and 54.2 ± 6.2% |
| COc1cccc2c1C(=O)c1c(O)c3c(c(O)c1C2=O)C[C@@](O)(C(=O)CO)C[C@@H]3O[C@H]1C[C@H](N=CN2CCOCC2)[C@H](O)[C@H](C)O1 [DOXM] | primarily in the cytoplasm | 23.7% and 23.7 ± 1.0% |
| COc1cccc2c1C(=O)c1c(O)c3c(c(O)c1C2=O)C[C@@](O)(C(C)=O)C[C@@H]3O[C@H]1C[C@H](N)[C@H](O)[C@H](C)O1 [DRB, daunorubicin, reference compound] | present in both the nucleus and cytoplasm | 35.8 ± 4.1% |
| COc1cccc2c1C(=O)c1c(O)c3c(c(O)c1C2=O)C[C@@](O)(C(C)=O)C[C@@H]3O[C@H]1C[C@H](N=CN2CCCCCC2)[C@H](O)[C@H](C)O1 [DRBH] | localized primarily in the cytoplasm | 21.9% and 21.9 ± 2.1% |
| COc1cccc2c1C(=O)c1c(O)c3c(c(O)c1C2=O)C[C@@](O)(C(C)=O)C[C@@H]3O[C@H]1C[C@H](N=CN2CCOCC2)[C@H](O)[C@H](C)O1 [DRBM] | localized primarily in the cytoplasm | 19.9% and 19.9 ± 1.4% |
